Measured data: PubChem BioAssay AID1117269 (University of Michigan, 2014)
This is one part, drawn at random, of 714 deposited reagents. 49 of all reagents (6.9%) were called active. 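Active means a hit in at least one line; per-line hit columns show which; some siRNA pools appear more than once.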 No sequences are given here. Not given: the amount of reagent.

Aim: 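Kinome-wide knockdown screen for regulators of TGF-beta reporter output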 (primary screen)
Cells: human A549 lung cancer and 1833 breast cancer (MDA-MB-231-derived) cell lines carrying a stable BTR luciferase reporter
Knock-down reagent: siRNA pool against human genes
Time to read-out: 72 h after transfection, then 1 h TGF-beta before the read
Treatment: TGF-beta 10 ng/mL added one hour before luciferin and read-out
Read-out: 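Live-cell BTR luciferase signal at 72 h after transfection and 1 h of TGF-beta at 10 ng/mL, fold versus scrambled siRNA, triplicate mean for each line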
Reading the numbers: fold over scrambled siRNA, A549 and fold over scrambled siRNA, 1833: higher = more reporter light, weaker TGF-beta receptor signalling
Hit rule: 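Active if a hit in A549 or 1833; a line's hit exceeds an upper quartile-based cutoff on mean log fold values, applied per plate and across the whole screen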
Calls: active = hit in at least one line; inactive = hit in neither line

Target gene | PubChem SID | fold over scrambled siRNA, A549 | fold over scrambled siRNA, 1833 | hit in A549 | hit in 1833 | outcome
CLK1 | SID152154455 | 1.63 | 2.33 | not a hit in A549 | not a hit in 1833 | inactive
MAP3K2 | SID135620706 | 1.95 | 4.57 | not a hit in A549 | not a hit in 1833 | inactive
AKT2 | SID135620600 | 1.64 | 2.95 | not a hit in A549 | not a hit in 1833 | inactive
PDGFRL | SID134315029 | 1.32 | 2.33 | not a hit in A549 | not a hit in 1833 | inactive
DLG1 | SID152148481 | 1.19 | 1 | not a hit in A549 | not a hit in 1833 | inactive
ULK1 | SID56478976 | 3.14 | 5.9 | not a hit in A549 | not a hit in 1833 | inactive
STK26 | SID152154531 | 2.1 | 3.24 | not a hit in A549 | not a hit in 1833 | inactive
ALPK3 | SID152152513 | 3.71 | 5.76 | not a hit in A549 | not a hit in 1833 | inactive
MYLK3 | SID152154935 | 4.84 | 5.47 | not a hit in A549 | not a hit in 1833 | inactive
BMPR1A | SID135620910 | 3.85 | 4.07 | not a hit in A549 | not a hit in 1833 | inactive
WNK4 | SID56478961 | 1.69 | 1.81 | not a hit in A549 | not a hit in 1833 | inactive
MASTL | SID56478754 | 1.76 | 3.79 | not a hit in A549 | not a hit in 1833 | inactive
ELP1 | SID56479224 | 1.72 | 3.1 | not a hit in A549 | not a hit in 1833 | inactive
RPS6KA6 | SID152153100 | 6.33 | 7.89 | hit in A549 | not a hit in 1833 | active
RPS6KB1 | SID152147142 | 5.58 | 22.3 | hit in A549 | hit in 1833 | active
GALK2 | SID56479099 | 1.05 | 2.71 | not a hit in A549 | not a hit in 1833 | inactive
CAMK2G | SID56478805 | 1.75 | 2.6 | not a hit in A549 | not a hit in 1833 | inactive
PIP5K1A | SID56478868 | 1.79 | 2.69 | not a hit in A549 | not a hit in 1833 | inactive
TRPM6 | SID56478975 | 3.02 | 2.07 | not a hit in A549 | not a hit in 1833 | inactive
EEF2K | SID152154873 | 1.1 | 1.47 | not a hit in A549 | not a hit in 1833 | inactive
EPHA8 | SID135620855 | 3.52 | 6.13 | not a hit in A549 | not a hit in 1833 | inactive
ETNK1 | SID152152739 | 1.37 | 1.2 | not a hit in A549 | not a hit in 1833 | inactive
ACVR2B | SID135620907 | 2.02 | 4.61 | not a hit in A549 | not a hit in 1833 | inactive

Look-ups from the entries so far:
WNK4 [SID56478961], hit in A549: not a hit in A549
Value for ACVR2B [SID135620907] under “fold over scrambled siRNA, 1833”: 4.61
For “hit in A549”, ETNK1 [SID152152739] is entered as not a hit in A549
For “fold over scrambled siRNA, A549”, PIP5K1A [SID56478868] shows 1.79
Under “outcome”, ELP1 [SID56479224] reads inactive
For “hit in 1833”, CAMK2G [SID56478805] has not a hit in 1833

The list goes on.
Target gene | PubChem SID | fold over scrambled siRNA, A549 | fold over scrambled siRNA, 1833 | hit in A549 | hit in 1833 | outcome
PRKY | SID135620861 | 0.869 | 2.22 | not a hit in A549 | not a hit in 1833 | inactive
PIK3R5 | SID152147687 | 0.808 | 0.762 | not a hit in A549 | not a hit in 1833 | inactive
CSF1R | SID152152485 | 1.36 | 4 | not a hit in A549 | not a hit in 1833 | inactive
FES | SID56478510 | 2.52 | 2.38 | not a hit in A549 | not a hit in 1833 | inactive
PLK3 | SID56478615 | 7.9 | 3.33 | hit in A549 | not a hit in 1833 | active
PRKCSH | SID56479239 | 1.29 | 2.08 | not a hit in A549 | not a hit in 1833 | inactive
BRD4 | SID152154839 | 3.72 | 28.3 | not a hit in A549 | hit in 1833 | –
RPS6KA4 | SID152147672 | 1.06 | 0.667 | not a hit in A549 | not a hit in 1833 | inactive
CHKA | SID135621235 | 0.898 | 1.63 | not a hit in A549 | not a hit in 1833 | inactive
CLK3 | SID56478875 | 2.4 | 2.44 | not a hit in A549 | not a hit in 1833 | inactive
PCK2 | SID56479157 | 1.62 | 2.1 | not a hit in A549 | not a hit in 1833 | inactive
DGKH | SID134311961 | 1.19 | 2.67 | not a hit in A549 | not a hit in 1833 | inactive
TRIM27 | SID152155375 | 3.57 | 5.94 | not a hit in A549 | not a hit in 1833 | inactive
KSR2 | SID152149204 | 1.6 | 18.9 | not a hit in A549 | hit in 1833 | –
STKLD1 | SID152151495 | 0.952 | 1.43 | not a hit in A549 | not a hit in 1833 | inactive
IRAK3 | SID56478864 | 0.905 | 1.46 | not a hit in A549 | not a hit in 1833 | inactive
